# This is one part of the list.
# Sequences of proteins named here, by UniProt entry; tags and fusion partners are left off. A change or cut given only in a name is not applied to a line headed by its entry.
# UniProt Q9NZ52: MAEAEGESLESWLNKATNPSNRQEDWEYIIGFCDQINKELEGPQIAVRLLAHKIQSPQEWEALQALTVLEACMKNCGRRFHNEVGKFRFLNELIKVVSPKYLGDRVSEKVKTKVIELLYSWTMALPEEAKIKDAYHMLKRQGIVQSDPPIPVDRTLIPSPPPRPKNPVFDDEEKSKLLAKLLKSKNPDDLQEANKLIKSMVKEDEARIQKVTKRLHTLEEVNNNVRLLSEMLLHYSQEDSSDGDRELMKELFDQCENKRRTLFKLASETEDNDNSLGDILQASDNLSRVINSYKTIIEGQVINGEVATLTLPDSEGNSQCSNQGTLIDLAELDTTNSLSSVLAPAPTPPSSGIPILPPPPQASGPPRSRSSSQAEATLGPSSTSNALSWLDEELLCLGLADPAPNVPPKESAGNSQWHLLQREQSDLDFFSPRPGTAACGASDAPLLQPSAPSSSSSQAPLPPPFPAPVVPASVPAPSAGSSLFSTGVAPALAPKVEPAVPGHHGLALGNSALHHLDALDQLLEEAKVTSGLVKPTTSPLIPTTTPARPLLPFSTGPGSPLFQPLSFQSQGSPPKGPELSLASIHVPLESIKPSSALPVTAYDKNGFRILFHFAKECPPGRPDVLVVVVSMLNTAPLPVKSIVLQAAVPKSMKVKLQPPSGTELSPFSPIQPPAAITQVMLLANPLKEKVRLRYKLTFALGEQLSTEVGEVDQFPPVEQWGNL
# UniProt Q9NUQ9: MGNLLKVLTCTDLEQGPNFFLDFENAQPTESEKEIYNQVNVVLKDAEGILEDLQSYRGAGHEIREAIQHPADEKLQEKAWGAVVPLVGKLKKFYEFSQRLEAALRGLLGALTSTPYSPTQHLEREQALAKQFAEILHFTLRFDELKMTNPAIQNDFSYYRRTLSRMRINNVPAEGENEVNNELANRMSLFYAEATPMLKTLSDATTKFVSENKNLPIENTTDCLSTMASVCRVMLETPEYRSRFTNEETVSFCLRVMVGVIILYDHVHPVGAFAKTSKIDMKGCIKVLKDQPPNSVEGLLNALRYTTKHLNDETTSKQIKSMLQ
# UniProt Q9BXW9: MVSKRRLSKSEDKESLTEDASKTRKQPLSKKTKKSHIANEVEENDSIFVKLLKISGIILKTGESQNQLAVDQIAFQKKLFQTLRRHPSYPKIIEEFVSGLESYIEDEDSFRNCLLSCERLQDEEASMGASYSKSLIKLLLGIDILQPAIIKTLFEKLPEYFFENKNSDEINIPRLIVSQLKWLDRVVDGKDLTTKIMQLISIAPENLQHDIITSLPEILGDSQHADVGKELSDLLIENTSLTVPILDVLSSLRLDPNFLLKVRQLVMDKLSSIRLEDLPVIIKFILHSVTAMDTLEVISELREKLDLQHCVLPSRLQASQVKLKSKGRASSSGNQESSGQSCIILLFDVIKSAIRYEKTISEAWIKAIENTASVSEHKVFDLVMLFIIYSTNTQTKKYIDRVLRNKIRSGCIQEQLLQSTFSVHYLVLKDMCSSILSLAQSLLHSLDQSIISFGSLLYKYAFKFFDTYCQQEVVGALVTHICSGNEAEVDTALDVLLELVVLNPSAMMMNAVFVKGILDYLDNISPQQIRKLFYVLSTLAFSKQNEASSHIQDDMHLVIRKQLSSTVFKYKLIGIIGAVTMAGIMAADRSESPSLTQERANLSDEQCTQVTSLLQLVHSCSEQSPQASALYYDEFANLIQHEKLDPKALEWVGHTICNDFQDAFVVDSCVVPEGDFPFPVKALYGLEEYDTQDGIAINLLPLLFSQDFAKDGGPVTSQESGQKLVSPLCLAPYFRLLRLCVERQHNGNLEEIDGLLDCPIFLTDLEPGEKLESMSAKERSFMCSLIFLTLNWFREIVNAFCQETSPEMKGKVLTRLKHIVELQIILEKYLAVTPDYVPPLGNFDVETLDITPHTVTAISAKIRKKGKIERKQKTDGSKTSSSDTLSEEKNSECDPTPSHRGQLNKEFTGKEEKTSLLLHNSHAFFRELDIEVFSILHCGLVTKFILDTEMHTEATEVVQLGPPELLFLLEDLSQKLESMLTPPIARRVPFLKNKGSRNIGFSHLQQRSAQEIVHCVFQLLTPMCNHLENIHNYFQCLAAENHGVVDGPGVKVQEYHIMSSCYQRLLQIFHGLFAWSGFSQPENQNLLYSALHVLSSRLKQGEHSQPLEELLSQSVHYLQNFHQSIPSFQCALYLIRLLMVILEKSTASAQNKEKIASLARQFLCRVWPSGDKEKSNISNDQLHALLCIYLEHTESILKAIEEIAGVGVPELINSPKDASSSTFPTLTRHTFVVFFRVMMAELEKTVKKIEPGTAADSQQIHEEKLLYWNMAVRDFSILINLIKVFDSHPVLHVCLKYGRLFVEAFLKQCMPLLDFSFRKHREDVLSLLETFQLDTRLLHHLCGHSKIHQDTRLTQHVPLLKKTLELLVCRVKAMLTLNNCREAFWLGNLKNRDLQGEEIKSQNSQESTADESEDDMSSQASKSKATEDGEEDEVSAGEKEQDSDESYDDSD
# UniProt P22087: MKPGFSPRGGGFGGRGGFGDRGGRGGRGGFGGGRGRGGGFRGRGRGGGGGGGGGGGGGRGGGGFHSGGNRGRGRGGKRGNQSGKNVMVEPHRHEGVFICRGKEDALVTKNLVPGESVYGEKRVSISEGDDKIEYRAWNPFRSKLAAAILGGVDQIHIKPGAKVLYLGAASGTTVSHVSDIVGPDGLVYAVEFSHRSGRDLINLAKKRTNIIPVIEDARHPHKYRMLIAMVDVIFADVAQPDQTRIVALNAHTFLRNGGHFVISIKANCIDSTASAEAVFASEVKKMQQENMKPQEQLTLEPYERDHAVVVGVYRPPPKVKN
# UniProt Q8TEQ6: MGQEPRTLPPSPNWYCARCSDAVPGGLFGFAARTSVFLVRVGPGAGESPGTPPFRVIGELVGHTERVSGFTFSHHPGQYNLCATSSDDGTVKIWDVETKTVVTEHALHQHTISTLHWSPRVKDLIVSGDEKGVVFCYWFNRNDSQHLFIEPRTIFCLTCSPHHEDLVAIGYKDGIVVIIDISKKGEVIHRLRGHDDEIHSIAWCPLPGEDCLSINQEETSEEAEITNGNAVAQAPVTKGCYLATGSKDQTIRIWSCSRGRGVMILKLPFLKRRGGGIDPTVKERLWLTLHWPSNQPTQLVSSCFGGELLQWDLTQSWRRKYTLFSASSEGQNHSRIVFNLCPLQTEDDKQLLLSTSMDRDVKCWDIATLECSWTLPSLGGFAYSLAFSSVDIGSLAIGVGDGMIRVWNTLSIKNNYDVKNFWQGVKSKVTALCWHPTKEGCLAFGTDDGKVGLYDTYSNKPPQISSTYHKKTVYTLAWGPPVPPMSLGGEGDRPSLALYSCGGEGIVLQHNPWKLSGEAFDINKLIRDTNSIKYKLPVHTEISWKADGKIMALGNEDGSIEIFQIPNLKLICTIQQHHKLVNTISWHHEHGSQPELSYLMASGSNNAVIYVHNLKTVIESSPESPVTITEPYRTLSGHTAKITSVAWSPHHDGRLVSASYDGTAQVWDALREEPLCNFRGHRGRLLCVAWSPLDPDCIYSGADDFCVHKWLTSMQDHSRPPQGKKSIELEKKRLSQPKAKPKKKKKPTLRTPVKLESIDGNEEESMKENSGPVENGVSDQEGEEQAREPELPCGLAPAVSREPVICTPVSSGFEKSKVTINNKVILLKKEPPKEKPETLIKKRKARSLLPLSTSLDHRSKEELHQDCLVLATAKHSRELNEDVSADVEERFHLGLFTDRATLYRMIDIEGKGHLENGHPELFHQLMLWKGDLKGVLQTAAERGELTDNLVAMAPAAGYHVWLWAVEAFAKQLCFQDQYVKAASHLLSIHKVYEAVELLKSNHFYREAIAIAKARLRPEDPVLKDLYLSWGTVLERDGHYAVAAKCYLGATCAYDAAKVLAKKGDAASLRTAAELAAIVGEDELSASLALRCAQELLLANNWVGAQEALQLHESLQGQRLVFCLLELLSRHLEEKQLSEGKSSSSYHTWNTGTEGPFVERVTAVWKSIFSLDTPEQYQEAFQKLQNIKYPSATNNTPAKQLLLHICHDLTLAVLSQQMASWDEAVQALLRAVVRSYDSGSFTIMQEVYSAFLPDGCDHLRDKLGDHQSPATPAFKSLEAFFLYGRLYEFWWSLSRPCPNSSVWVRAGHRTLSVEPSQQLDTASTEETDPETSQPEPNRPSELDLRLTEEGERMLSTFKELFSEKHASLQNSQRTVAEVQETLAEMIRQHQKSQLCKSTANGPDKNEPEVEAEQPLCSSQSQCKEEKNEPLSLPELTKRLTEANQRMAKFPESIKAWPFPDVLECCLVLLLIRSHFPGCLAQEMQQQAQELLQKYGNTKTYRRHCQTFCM
# UniProt P10109: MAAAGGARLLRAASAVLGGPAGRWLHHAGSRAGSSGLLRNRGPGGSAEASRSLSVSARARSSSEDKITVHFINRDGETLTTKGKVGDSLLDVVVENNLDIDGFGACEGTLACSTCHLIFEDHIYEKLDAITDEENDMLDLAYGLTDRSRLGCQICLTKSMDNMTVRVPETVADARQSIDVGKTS
# UniProt O75600: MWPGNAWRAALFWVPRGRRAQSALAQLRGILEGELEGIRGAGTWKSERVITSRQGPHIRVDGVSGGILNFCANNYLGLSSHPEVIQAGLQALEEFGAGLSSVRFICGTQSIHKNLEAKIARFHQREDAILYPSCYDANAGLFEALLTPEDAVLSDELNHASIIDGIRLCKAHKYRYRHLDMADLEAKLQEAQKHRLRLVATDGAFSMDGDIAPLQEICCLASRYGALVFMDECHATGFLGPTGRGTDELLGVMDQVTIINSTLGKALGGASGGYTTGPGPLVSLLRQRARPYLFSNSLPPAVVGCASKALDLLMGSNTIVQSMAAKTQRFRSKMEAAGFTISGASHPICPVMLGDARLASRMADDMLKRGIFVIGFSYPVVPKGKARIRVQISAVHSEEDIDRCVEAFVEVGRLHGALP
# UniProt P04406: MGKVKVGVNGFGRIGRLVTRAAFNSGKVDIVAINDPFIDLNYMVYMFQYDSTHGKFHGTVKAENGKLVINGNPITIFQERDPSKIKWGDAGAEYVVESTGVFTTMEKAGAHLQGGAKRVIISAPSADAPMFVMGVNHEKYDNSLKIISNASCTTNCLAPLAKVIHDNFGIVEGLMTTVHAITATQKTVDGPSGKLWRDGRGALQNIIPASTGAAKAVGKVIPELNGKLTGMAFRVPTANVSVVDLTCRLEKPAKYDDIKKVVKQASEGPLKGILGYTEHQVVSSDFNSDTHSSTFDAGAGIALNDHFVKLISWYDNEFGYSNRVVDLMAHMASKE
# UniProt Q8NFF5: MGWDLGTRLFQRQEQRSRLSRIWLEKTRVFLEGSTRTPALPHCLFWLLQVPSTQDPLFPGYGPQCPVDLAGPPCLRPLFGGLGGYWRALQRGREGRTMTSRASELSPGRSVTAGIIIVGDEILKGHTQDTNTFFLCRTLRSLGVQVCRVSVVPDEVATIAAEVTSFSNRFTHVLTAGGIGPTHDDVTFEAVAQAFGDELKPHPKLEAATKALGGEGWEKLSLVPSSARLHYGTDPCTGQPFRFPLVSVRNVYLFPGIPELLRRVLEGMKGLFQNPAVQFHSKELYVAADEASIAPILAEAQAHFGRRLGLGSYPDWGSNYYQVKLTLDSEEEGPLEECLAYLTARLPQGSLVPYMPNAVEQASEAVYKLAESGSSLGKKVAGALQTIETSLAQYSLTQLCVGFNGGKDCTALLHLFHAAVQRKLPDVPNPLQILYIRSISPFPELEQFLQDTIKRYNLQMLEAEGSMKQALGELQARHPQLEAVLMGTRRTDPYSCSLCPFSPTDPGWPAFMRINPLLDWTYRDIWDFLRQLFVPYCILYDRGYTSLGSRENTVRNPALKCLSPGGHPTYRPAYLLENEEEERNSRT
# UniProt Q8TB52: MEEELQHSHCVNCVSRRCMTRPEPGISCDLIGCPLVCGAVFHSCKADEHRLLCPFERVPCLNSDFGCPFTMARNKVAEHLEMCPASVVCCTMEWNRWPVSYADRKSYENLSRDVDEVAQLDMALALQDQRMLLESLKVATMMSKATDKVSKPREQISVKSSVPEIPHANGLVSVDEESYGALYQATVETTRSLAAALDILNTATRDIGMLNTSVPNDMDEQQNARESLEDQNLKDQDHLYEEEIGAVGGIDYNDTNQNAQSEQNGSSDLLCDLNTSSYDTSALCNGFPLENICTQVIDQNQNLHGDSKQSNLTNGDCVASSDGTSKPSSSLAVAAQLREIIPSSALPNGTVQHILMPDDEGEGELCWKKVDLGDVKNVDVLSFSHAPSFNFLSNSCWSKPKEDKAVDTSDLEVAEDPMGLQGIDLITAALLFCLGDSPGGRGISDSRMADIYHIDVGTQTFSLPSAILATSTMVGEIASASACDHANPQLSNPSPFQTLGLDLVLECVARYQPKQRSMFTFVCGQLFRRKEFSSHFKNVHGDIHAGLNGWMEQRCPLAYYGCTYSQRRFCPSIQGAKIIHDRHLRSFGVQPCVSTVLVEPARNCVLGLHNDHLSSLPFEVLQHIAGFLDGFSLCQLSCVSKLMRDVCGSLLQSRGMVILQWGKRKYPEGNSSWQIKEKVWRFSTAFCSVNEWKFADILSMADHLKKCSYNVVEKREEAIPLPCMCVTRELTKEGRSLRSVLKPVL
# Compound: COc1ccc(Cn2ccc3cc(C)c(C(=O)NO)cc32)cc1
# Assay: dose-dependent thermal stabilisation call (2D-TPP, DLPTP, 10% FDR) (binary (1 = stabilised)); higher = stabilised by the compound
# Settings: system: HL-60 intact cells; concentration range 0.04-10 µM
# Method: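 2D thermal proteome profiling in intact HL-60 cells treated with BRD-3811 (0, 0.04, 0.29, 2, 10 uM) for 90 min at 37 C, then heated 3 min at one of 12 temperatures (42-63.9 C). Soluble protein was quantified by TMT10 MS. The value is the DLPTP call of the paper: dose-dependent thermal stabilisation over all temperatures at 10% FDR (F-test of a dose-response against a flat model); one experiment, one call per tested protein.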
row,Target,dose-dependent thermal stabilisation call
1,GGCT (UniProt O75223),inactive: 0
2,GGA3 (UniProt Q9NZ52),inactive: 0
3,GALNT2 (UniProt Q10471),inactive: 0
4,GNL1 (UniProt P36915),inactive: 0
5,FBRS (UniProt Q9HAH7),inactive: 0
6,FAM49B (UniProt Q9NUQ9),inactive: 0
7,FANCI (UniProt Q9NVI1),inactive: 0
8,FKBPL (UniProt Q9UIM3),inactive: 0
9,GHDC (UniProt Q8N2G8),inactive: 0
10,FAS (UniProt P25445),inactive: 0
11,GNA15 (UniProt P30679),inactive: 0
12,GDI1 (UniProt P31150),inactive: 0
13,FLJ21865,inactive: 0
14,GLE1 (UniProt Q53GS7),inactive: 0
15,GALK1 (UniProt P51570),inactive: 0
16,GANAB (UniProt Q14697),inactive: 0
17,FIG4 (UniProt Q92562),inactive: 0
18,FEZ2 (UniProt Q9UHY8),inactive: 0

# Retrieved one by one from the entries so far:
row,Target,dose-dependent thermal stabilisation call
6,FAM49B (UniProt Q9NUQ9),inactive: 0
7,FANCI (UniProt Q9NVI1),inactive: 0
14,GLE1 (UniProt Q53GS7),inactive: 0

# Next part.

row,Target,dose-dependent thermal stabilisation call
1,FH (UniProt P07954),inactive: 0
2,FANCD2 (UniProt Q9BXW9),inactive: 0
3,FBL (UniProt P22087),inactive: 0
4,GCS1 (UniProt Q13724),inactive: 0
5,GEMIN5 (UniProt Q8TEQ6),inactive: 0
6,GABARAPL1 (UniProt Q9H0R8),inactive: 0
7,FDX1 (UniProt P10109),inactive: 0
8,GCAT (UniProt O75600),inactive: 0
9,GAPDH (UniProt P04406),inactive: 0
10,GNB2L1 (UniProt P63244),inactive: 0
11,FLAD1 (UniProt Q8NFF5),inactive: 0
12,GCLM (UniProt P48507),inactive: 0
13,FBXO30 (UniProt Q8TB52),inactive: 0
14,GALNT6 (UniProt Q8NCL4),inactive: 0
15,FRY (UniProt Q5TBA9),inactive: 0
16,GIPC1 (UniProt O14908),inactive: 0
17,G3BP1 (UniProt Q13283),inactive: 0
18,FRAG1,inactive: 0

# From the supplement of paper PMC7666118
